Measurements reported in the supplement of paper PMC3334620.
In all, about 33,000 sequences were measured (“E-score (-0.5 to 0.5)”: median about -8e-05, highest 2% from about 0.23 on). This is one part of the list.

target: T1, Nrg2 (UniProt P38082); assay: PBM E-score (8-mer binding enrichment) (E-score (-0.5 to 0.5)); higher = stronger / more preferred TF binding; conditions: protein concentration: 100 nM; construct: GST-full length
T1 sequence: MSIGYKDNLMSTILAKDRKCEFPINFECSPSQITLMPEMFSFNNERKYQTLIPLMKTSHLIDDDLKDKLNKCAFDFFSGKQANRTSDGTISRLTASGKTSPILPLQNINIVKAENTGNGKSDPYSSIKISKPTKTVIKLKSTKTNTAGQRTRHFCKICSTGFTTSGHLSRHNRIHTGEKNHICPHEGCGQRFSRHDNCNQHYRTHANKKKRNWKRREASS
Procedure, shortened: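 Bound GST-tagged yeast transcription factors, applied at about 100-200 nM to double-stranded universal all-10-mer Agilent arrays, were detected with fluorescent anti-GST. Scans were normalised with masliner. A modified Wilcoxon-Mann-Whitney statistic, the E-score, was assigned to each ungapped eight-base word pooled with its reverse complement by the Universal PBM Analysis Suite.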

| Sequence | PBM E-score |
| --- | --- |
| GAAGGCGC | -0.135 |
| ATAATTCA | 0.125 |
| GAGCCTAA | -0.0883 |
| TGCCGTAA | -0.0345 |
| CAAGAACC | 0.172 |
| CGTTAACG | 0.0171 |
| AAAGACCG | -0.166 |
| CCGACCTA | 0.0717 |
| GAAACTGA | -0.118 |
| GCACTCCC | -0.0513 |
| ATCGAGAT | 0.138 |
| TCGGTCAA | 0.0158 |
| CGTCGCTA | 0.149 |
| CGCCTTGA | -0.0683 |
| CTCCCCGA | -0.197 |
| AAACTTCA | 0.0984 |
| ACATAAGT | 0.118 |
| GATTAAGC | 0.0306 |
| CAAATCTG | -0.0086 |
| AATTTAGC | 0.14 |
| ACGGCGAT | 0.0361 |
| AAAGTTCT | -0.0562 |
| ACGCGACG | 0.061 |
| CACTACAA | 0.129 |
| CGACCTAA | 0.167 |

| Sequence | PBM E-score |
| --- | --- |
| CGAGTCTC | -0.294 |
| GTTTATAA | 0.109 |
| CATAGTCA | 0.0096 |
| CCTGCAGG | 0.174 |
| CAAGATTG | -0.0678 |
| ACCCGTGC | 0.0186 |
| CACCCCTC | -0.0399 |
| ATAACTAC | 0.119 |
| AGAAGAGG | -0.209 |
| ATCGGTTA | 0.141 |
| GCCACCGC | -0.13 |
| GAAGAAAA | -0.113 |
| CTTTATTC | 0.0506 |
| CCCTGGCC | 0.175 |
| CAGAACGA | -0.00647 |
| CATAGGAC | -0.151 |
| AGATCGCC | -0.0109 |
| ATCCTAGC | 0.00403 |
| AGAAACCA | 0.0851 |
| GGGGAAAA | -0.00355 |
| CGGCTGCA | -0.137 |
| GTTCTACA | -0.131 |
| ACCTAAAC | -0.0716 |
| CCCATACA | -0.0125 |
| ATGCCTGG | -0.0955 |

| Sequence | PBM E-score |
| --- | --- |
| ACTTGCAT | 0.131 |
| GCTACGTA | -0.0345 |
| ACAGCGGG | -0.0296 |
| ATTGCAGC | 0.0702 |
| ACGTGAAC | -0.22 |
| ATTGTGGA | 0.0344 |
| CGTGGAAC | 0.0155 |
| CCATTCAG | -0.00296 |
| CAGATGCC | -0.203 |
| CGCGGGCC | 0.176 |
| GACGGGGA | -0.165 |
| ATGTAGTC | -0.0277 |
| GGTAACCA | -0.23 |
| CGGAGTAC | -0.122 |
| CACTACAG | 0.00921 |
| TGATCCCA | 0.0527 |
| GCTTTGAA | 0.0162 |
| AAAAGCCA | 0.219 |
| CCCGTGAG | -0.00464 |
| TAGTACAA | -0.0144 |
| CCCGCAGG | -0.0245 |
| CTGATCAC | -0.0694 |
| AAGAACGA | 0.109 |
| CACTTCTA | -0.0512 |
| ACGTCAGG | -0.167 |

Copied from the entries so far for reference:

| Sequence | PBM E-score |
| --- | --- |
| CGGAGTAC | -0.122 |
| CACTACAG | 0.00921 |

(continued)

| Sequence | PBM E-score |
| --- | --- |
| TCGGTACA | -0.141 |
| CGCACTTA | 0.065 |
| AAAGGCTG | -0.244 |
| CATCGGGG | -0.115 |
| AGGTCCTA | -0.16 |
| GCTTGGTA | 0.0492 |
| CATGGTAC | 0.00349 |
| GGATGGGA | -0.135 |
| AAGGCACA | -0.0706 |
| ACGTCAAG | -0.194 |
| GGTCATAA | 0.0215 |
| GTGCTCAA | 0.0342 |
| CATCGAGG | 0.0813 |
| AGTGCCCC | -0.13 |
| CCTCCCCC | -0.401 |
| CGCCATTC | 0.0972 |
| ATCATGAT | 0.0407 |
| ACGTGAAA | 0.139 |
| TAGGGTAA | 0.129 |
| ACCCACTA | 0.0322 |
| GGCGCGAC | 0.149 |
| AGAAAGTA | -0.0198 |
| AAATGCCA | 0.0141 |
| CCGTGCAC | -0.046 |
| AAGCGCAG | 0.0692 |

| Sequence | PBM E-score |
| --- | --- |
| ACGTGTAA | -0.0818 |
| AGGCGGGG | 0.0214 |
| CATTACCA | 0.0358 |
| ATCCTCCC | -0.213 |
| CAAGGACC | 0.109 |
| ACACTGTA | 0.0548 |
| CCTTACTA | -0.151 |
| TCCCAGAA | -0.142 |
| TCTCTCCA | -0.0135 |
| ATATTCGA | -0.0629 |
| ATTATTTA | 0.173 |
| AGCGTACC | -0.188 |
| TCGCCTCA | 0.0396 |
| GTATGCGA | 0.136 |
| CCCGAATC | -0.0566 |
| GATGTTAA | 0.00349 |
| CTCCGTTA | -0.039 |
| AATCAATC | 0.205 |
| ACAGATAA | 0.0378 |
| ACCTATCC | -0.00287 |
| AATTAATG | 0.182 |
| CATGACTA | -0.0763 |
| CCTGTTCA | 0.103 |
| AAATTTTC | -0.0998 |
| CACTTAGC | -0.0931 |

Single entries from the entries so far.
PBM E-score with CACTTAGC reads -0.0931
PBM E-score with GTATGCGA reads 0.136
PBM E-score with TCCCAGAA reads -0.142
PBM E-score with AGGCGGGG reads 0.0214
PBM E-score with ATCCTCCC reads -0.213

(cont.)

| Sequence | PBM E-score |
| --- | --- |
| ACTTGTGG | -0.0601 |
| CAAGGAGC | -0.166 |
| CCCACAAG | -0.0136 |
| AAGGATCG | -0.055 |
| CGCGGAGA | 0.177 |
| CTGCTACA | -0.00452 |
| ATTCCTGA | -0.0367 |
| AAATGACA | 0.133 |
| TCGACTAA | 0.0293 |
| CCGTGTCA | -0.192 |
| CCCTGGGC | 0.12 |
| AGGTACTA | 0.0762 |
| CAAACTTC | 0.137 |
| TCGAGACA | 0.171 |
| CCCCCCCC | -0.458 |
| CCGGGGCC | -0.204 |
| AAAACAGC | 0.0784 |
| ACGGAGTC | 0.00907 |
| AGTATCCG | 0.0491 |
| ATATCCGA | 0.235 |
| CACCCCCC | -0.5 |
| CCCCGGTA | -0.341 |
| TGTCGCAA | -0.0275 |
| AACCCTAG | 0.0468 |
| CACGGACC | 0.0501 |

| Sequence | PBM E-score |
| --- | --- |
| GTCCGATA | -0.13 |
| CCGTAGTC | -0.137 |
| GAGGACGC | -0.153 |
| GAGCTGGC | -0.097 |
| GAATGAGC | 0.0578 |
| AAACGACC | 0.148 |
| AAACCTCA | 0.17 |
| ATTGTGGC | 0.1 |
| ACACAGGA | -0.0296 |
| GCATGAGC | -0.00406 |
| CGTCCAGC | -0.148 |
| GCTCCAAA | -0.202 |
| AACGAGCA | -0.0566 |
| ATCCTATG | -0.0287 |
| ATCTCCGG | 0.0824 |
| ATTAATAA | 0.217 |
| TGAGGGAA | 0.0135 |
| ATTTAAGG | -0.0617 |
| AATCATGG | 0.0273 |
| AGCAGGCC | -0.186 |
| AATAGTCA | 0.0674 |
| CTACGCTA | -0.104 |
